The experiment concerns the target G-protein-coupled receptor promoting fungal in planta expansion 1 (Gpe1) (Ustilago maydis). Put plainly: SDS-PAGE and anti-HA Western blot.

Chains of the proteins cited; added tags and fusions are not shown.
UniProt A0A0D1E6B3: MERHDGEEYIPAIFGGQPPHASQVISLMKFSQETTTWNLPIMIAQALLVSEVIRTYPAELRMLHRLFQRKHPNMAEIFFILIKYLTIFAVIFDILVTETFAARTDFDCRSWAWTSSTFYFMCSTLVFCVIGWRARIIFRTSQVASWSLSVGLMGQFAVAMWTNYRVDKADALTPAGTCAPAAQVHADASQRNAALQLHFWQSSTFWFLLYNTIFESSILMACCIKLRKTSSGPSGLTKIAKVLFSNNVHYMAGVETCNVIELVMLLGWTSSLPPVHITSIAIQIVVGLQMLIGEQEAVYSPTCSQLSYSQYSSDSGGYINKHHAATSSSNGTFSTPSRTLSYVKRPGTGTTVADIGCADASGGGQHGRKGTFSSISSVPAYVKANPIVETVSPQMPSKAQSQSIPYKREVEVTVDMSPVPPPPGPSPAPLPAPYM

No constants are given. Whether binding was seen depends on the method and setting. Some binding calls cover weakened binding; strength is not graded here.

As to “G-protein-coupled receptor promoting fungal in planta expansion 1 (Gpe1) (from UniProt A0A0D1E6B3 1-435)”, the binding result was “binds”.

(Values after publication doi:10.1101/2025.09.26.678928.)
